This note sets out measurements from publication PMC12267381.

This assay concerns the target T1, Sterol regulatory element binding protein 1 (mouse (endogenous in bEND.3)) (UniProt Q9WTN3).
T1 sequence: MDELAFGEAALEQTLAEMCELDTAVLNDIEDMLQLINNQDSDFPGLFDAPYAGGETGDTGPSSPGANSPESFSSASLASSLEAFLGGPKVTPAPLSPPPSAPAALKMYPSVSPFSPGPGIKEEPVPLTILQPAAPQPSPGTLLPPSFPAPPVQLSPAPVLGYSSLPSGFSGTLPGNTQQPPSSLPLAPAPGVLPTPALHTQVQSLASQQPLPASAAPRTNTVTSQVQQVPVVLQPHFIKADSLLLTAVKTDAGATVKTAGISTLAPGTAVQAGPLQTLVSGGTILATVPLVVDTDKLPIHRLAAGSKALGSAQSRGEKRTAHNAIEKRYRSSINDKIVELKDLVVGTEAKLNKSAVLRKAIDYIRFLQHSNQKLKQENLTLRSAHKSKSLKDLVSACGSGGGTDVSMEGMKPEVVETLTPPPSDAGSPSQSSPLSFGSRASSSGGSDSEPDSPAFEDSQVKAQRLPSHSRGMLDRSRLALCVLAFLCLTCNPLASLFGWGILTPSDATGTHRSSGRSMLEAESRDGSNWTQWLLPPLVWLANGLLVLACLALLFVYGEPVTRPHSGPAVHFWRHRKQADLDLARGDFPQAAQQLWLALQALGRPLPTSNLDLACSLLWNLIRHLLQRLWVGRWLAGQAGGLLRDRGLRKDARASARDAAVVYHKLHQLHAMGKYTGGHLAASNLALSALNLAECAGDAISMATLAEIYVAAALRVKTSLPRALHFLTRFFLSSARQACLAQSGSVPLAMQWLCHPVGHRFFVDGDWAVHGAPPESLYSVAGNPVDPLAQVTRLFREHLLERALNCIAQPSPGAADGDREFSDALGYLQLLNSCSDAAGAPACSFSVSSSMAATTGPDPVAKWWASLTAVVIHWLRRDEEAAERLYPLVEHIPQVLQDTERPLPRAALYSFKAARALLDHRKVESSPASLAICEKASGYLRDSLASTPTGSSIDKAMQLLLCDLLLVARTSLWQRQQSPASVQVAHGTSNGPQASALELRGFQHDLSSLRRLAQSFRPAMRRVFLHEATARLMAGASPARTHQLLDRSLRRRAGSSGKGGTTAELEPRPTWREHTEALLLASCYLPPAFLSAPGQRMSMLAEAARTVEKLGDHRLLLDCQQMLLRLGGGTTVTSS
Kind of assay: affinity purification with mass spectrometry; proteins precipitated with anti-SREBP1 antibody from endothelial cells treated for 24 h with Erastin or Erastin + SDF-1α, identified by mass spectrometry.

No constants are given. Whether binding was seen depends on the method and setting. In cells and extracts the contact can be indirect. A yes stands for co-enrichment or nearness to the bait. Other partners may have been found.

B1: metadherin (protein, UniProt Q80WJ7 1-579)
chain: MAARSWQDELAQQAEEGSARLRELLSVGLGFLRTELGLDLGLEPKRYPGWVILVGTGALGLLLLFLLGYGWAAACAGARKKRRSPPRKREEAAPPTPAPDDLAQLKNLRSEEQKKKNRKKLPEKPKPNGRTVEVPEDEVVRNPRSITAKQAPETDKKNEKSKKNKKKSKSDAKAVQNSSRHDGKEVDEGAWETKISHREKRQQRKRDKVLTDSGSLDSTIPGIENIITVTTEQLTTASFPVGSKKNKGDSHLNVQVSNFKSGKGDSTLQVSSRLNENLTVNGGGWSEKSVKLSSQLSEEKWNSVPPASAGKRKTEPSAWTQDTGDTNANGKDWGRNWSDRSIFSGIGSTAEPVSQSTTSDYQWDVSRNQPYIDDEWSGLNGLSSADPSSDWNAPAEEWGNWVDEDRASLLKSQEPISNDQKVSDDDKEKGEGALPTGKSKKKKKKKKKQGEDNSHTQDTEDLEKDTREELPVNTSKARPKQEKACSLKTMSTSDPAEVLIKNSQPVKTLPPAISAEPSITLSKGDSDNSSSQVPPMLQDTDKPKSNAKQNSVPPSQTKSETNWESPKQIKKKKKARRET
B1: the binding entry is recorded as “binds”.
